This passage reports percent viability results from the supplement of paper PMC8256030.

“And” between values parts separate entries of the source, which are not always exact repeats. Equal entries are not always repeated. This is one part of the list. This data set is noisy: repeats of one test often differ as much as different tests do.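 HEK293T cells were given each compound shortly before transfection with a reporter in which red mCherry is followed by the SARS-CoV-2 frameshift element and then GFP in the −1 frame, so GFP appears only after frameshifting.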

The test deals with HEK293T. Kind of test: percent viability (nuclei count) relative to control; higher = more viable cells. The conditions noted are these: 10 µM; 24 h.

`CN1CCN(CCCN2c3ccccc3Sc3ccc(Cl)cc32)CC1`: the percent viability was 160%.

Take `Cc1ccc(O)c2ncccc12` [tiliquinol]: the percent viability was 179%.

Regarding `C[N+](C)(C)[C@@H](Cc1c[nH]c(=S)[nH]1)C(=O)[O-]` [Ergothioneine], the percent viability was determined as 217%.

On to `CC(=O)N(O)CCCCCNC(=O)CCC(=O)N(O)CCCCCNC(=O)CCC(=O)N(O)CCCCCN` [deferoxamine], for which the percent viability came out at 175%.

As for `CC(C)CC(N)=O`, the percent viability turned out to be 143%.

Consider `OCCN1CCN(CC/C=C2/c3ccccc3Sc3ccc(Cl)cc32)CC1` [Zuclopenthixol], for which the percent viability turned out to be 448%.

As for `CCCc1nc(C)c2c(=O)nc(-c3cc(S(=O)(=O)N4CCN(CC)CC4)ccc3OCC)[nH]n12` [vardenafil], the percent viability was 238%.

Take `O=C1c2ccccc2CN2C(=O)c3ccccc3CN12` [diftalone]: the percent viability is 94.4%.

On to `CCN(CC)CCCN1c2ccccc2Sc2ccc(Cl)cc21` [chlorproethazine], for which the percent viability is 312%.

With `CC(C)[C@H](N)C(=O)OCC(CO)OCn1cnc2c(=O)nc(N)[nH]c21` (stereo not given in full) [Valcyte], the percent viability worked out at 267%.

As to `Cn1cnc([N+](=O)[O-])c1Sc1ncnc2[nH]cnc12` [Azathioprine], the percent viability was 338% and 210%.

Turning to `CN1C(C(=O)Nc2nccs2)=C(O)c2ccccc2S1(=O)=O` [sudoxicam], the percent viability was determined as 369%.

`CC[C@]12CCCN3CCc4c(n(c5ccccc45)[C@@](O)(C(=O)OC)C1)[C@@H]32`: the percent viability was determined as 125%.

Take `Oc1ncnc2[nH]ncc12` [allopurinol]: the percent viability came to 221%.

`Cc1ccc(C2(O)CCN(CCCC(=O)c3ccc(F)cc3)CC2)cc1` [moperone]: the percent viability came out at 109%.

As to `CN(C)CCN(Cc1ccc(Cl)cc1)c1ccccn1`, the percent viability came to 325%.

On to `Nc1cccc(-n2ccccc2=O)c1` [amphenidone], for which the percent viability amounted to 182%.

Consider `C[C@H](CCC(=O)O)[C@H]1CC[C@H]2[C@@H]3CC[C@@H]4C[C@H](O)CC[C@]4(C)[C@H]3C[C@H](O)[C@]12C` [Deoxycholic Acid], for which the percent viability turned out to be 319%.

`CO[C@H]1C[C@@H]2CC[C@@H](C)[C@@](O)(O2)C(=O)C(=O)N2CCCC[C@H]2C(=O)O[C@H]([C@H](C)C[C@@H]2CC[C@@H](O)[C@H](OC)C2)CC(=O)[C@H](C)/C=C(\C)[C@@H](O)[C@@H](OC)C(=O)[C@H](C)C[C@H](C)/C=C/C=C/C=C/1C` [Sirolimus]: the percent viability came out at 118%.

On to `CC(C)OC(=O)CCC/C=C\C[C@@H]1[C@@H](/C=C/C(F)(F)COc2ccccc2)[C@H](O)C[C@@H]1O` [Tafluprost], for which the percent viability was determined as 229%.

With `C[C@]12C[C@H](O)[C@H]3[C@@H](CCC4=CC(=O)CC[C@@]43C)[C@@H]1CC[C@@H]2C(=O)CO` [Corticosterone], the percent viability is 120%.

Regarding `CC(C)(C)c1ccc(CN2CCN(C(c3ccccc3)c3ccc(Cl)cc3)CC2)cc1` (stereo not given) [buclizine], the percent viability worked out at 188%.

`CO[C@@]12[C@H](COC(N)=O)C3=C(C(=O)C(C)=C(N)C3=O)N1C[C@@H]1N[C@@H]12`: the percent viability worked out at 165%.

Regarding `C1CCC(C(CC2CCCCN2)C2CCCCC2)CC1` (stereo not given) [perhexiline], the percent viability turned out to be 340%.

Consider `COc1ccc(C(=O)NCc2ccc(OCCN(C)C)cc2)cc1OC` [itopride], for which the percent viability was 224% and 251%.
